PubChem BioAssay AID743454, Peter MacCallum Cancer Centre | 2014
Aim: 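Knock-downs lowering viability or raising caspase 3/7 activity in vorinostat-treated resistant cells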 (primary screen). Cell system: human HCT116-VR colon cancer cells, selected for vorinostat resistance. Reagents: siRNA pool against human genes, 40 nM siRNA pool. Time to read-out: vorinostat for 24 h, read-out about 72 h after transfection. Treatment: vorinostat at 2.5 µM final. Detection: 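Cell viability by CellTiter-Fluor and caspase 3/7 activity by luminescence, each scaled to mock wells per plate, duplicates averaged, then robust z-scored over all plates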. Scale: viability robust z-score: higher = more viable cells than screen typical; caspase robust z-score: higher = more caspase 3/7 activity than screen typical. Active means: 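Hits are knock-downs in viability class RV1/RV2 or caspase class CA1/CA2, excluding ones that killed cells in the no-drug cell-count arm; hits then retested with single siRNAs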.
Here is one part, drawn at random, of about 18,000 reagents tested. In the full data, 450 (2.5%) got an active call. 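Single biological run; no consistent viability z cut-off exists, so the class columns, not z-scores, define the calls.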

RPS27L (ribosomal protein S27 like) — viability hit class: no change; caspase hit class: no change; viability robust z-score: -0.1; caspase robust z-score: 0.3; activity call: inactive
LRIT1 (leucine rich repeat, Ig-like and transmembrane domains 1) — viability hit class: no change; caspase hit class: no change; viability robust z-score: 1.02; caspase robust z-score: -0.14; activity call: inactive
SULT1A3 (sulfotransferase family 1A member 3) — viability hit class: no change; caspase hit class: no change; viability robust z-score: 0.47; caspase robust z-score: -0.44; activity call: inactive
CFHR1 (complement factor H related 1) — viability hit class: RV2 (reduced viability); caspase hit class: no change; viability robust z-score: -3.04; caspase robust z-score: 2.02; activity call: active
SNRPD2 (small nuclear ribonucleoprotein D2 polypeptide) — viability hit class: no change; caspase hit class: no change; viability robust z-score: -3.92; caspase robust z-score: 0.6; activity call: inactive
CYP20A1 (cytochrome P450 family 20 subfamily A member 1) — viability hit class: no change; caspase hit class: no change; viability robust z-score: 0.64; caspase robust z-score: -1.27; activity call: inactive
GNG10 (G protein subunit gamma 10) — viability hit class: no change; caspase hit class: no change; viability robust z-score: 0.15; caspase robust z-score: -0.57; activity call: inactive
BSN (bassoon presynaptic cytomatrix protein) — viability hit class: no change; caspase hit class: no change; viability robust z-score: -0.07; caspase robust z-score: 1.24; activity call: inactive
DSCAM (DS cell adhesion molecule) — viability hit class: no change; caspase hit class: no change; viability robust z-score: -1.42; caspase robust z-score: -1.05; activity call: inactive
DNAJC25-GNG10 (DNAJC25-GNG10 readthrough) — viability hit class: no change; caspase hit class: no change; viability robust z-score: -0.49; caspase robust z-score: 0.2; activity call: inactive
ZFYVE16 (zinc finger FYVE-type containing 16) — viability hit class: no change; caspase hit class: no change; viability robust z-score: -2.03; caspase robust z-score: -0.32; activity call: inactive

Continued (2 carried over from the part before).
DNAJC25-GNG10 (DNAJC25-GNG10 readthrough) — viability hit class: no change; caspase hit class: no change; viability robust z-score: -0.49; caspase robust z-score: 0.2; activity call: inactive
ZFYVE16 (zinc finger FYVE-type containing 16) — viability hit class: no change; caspase hit class: no change; viability robust z-score: -2.03; caspase robust z-score: -0.32; activity call: inactive
TERF2IP (TERF2 interacting protein) — viability hit class: no change; caspase hit class: no change; viability robust z-score: 0.61; caspase robust z-score: -0.54; activity call: inactive
BLTP2 (bridge-like lipid transfer protein family member 2) — viability hit class: no change; caspase hit class: no change; viability robust z-score: 0.5; caspase robust z-score: 0.72; activity call: inactive
SLC41A1 — viability hit class: no change; caspase hit class: no change; viability robust z-score: 0.91; caspase robust z-score: -0.16; activity call: inactive
GCOM1 (GCOM1, MYZAP-POLR2M combined locus) — viability hit class: no change; caspase hit class: CA1 (caspase activation); viability robust z-score: -0.92; caspase robust z-score: 5.62; activity call: active
PGS1 (phosphatidylglycerophosphate synthase 1) — viability hit class: no change; caspase hit class: no change; viability robust z-score: 0.5; caspase robust z-score: 0.5; activity call: inactive
NHSL3 (NHS like 3) — viability hit class: no change; caspase hit class: no change; viability robust z-score: 0.23; caspase robust z-score: -1; activity call: inactive
NFASC (neurofascin) — viability hit class: no change; caspase hit class: no change; viability robust z-score: 1.09; caspase robust z-score: -0.41; activity call: inactive
VSTM1 (V-set and transmembrane domain containing 1) — viability hit class: no change; caspase hit class: no change; viability robust z-score: -1.06; caspase robust z-score: 1.11; activity call: inactive
CA11 (carbonic anhydrase 11 (inactive)) — viability hit class: no change; caspase hit class: no change; viability robust z-score: -0.71; caspase robust z-score: 3.53; activity call: inactive
ZFAND6 (zinc finger AN1-type containing 6) — viability hit class: no change; caspase hit class: no change; viability robust z-score: 0.59; caspase robust z-score: -0.51; activity call: inactive
